# Earlier results in patent US6355670B1, “Use of estrogen antagonists and estrogen agonists in inhibiting pathological conditions” (Pfizer, Inc., priority 1996, dated 2002).
# At least one structure is not confirmed: it was looked up by name or label, or the drawing left a doubt.
# Test system: rat model of pulmonary hypertension
# Conditions: monocrotaline pyrrole rat model
compound,measurement,value
C[C@]12CC[C@@H]3c4ccc(O)cc4CC[C@H]3[C@@H]1CC[C@@H]2O [estradiol],interstitial edema,prevented interstitial edema
same,right ventricular hypertrophy,decreased right ventricular hypertrophy
